Experiment [1] concerns the target hAng2-Fc (Beijing Sino Biological, Catalog No. 10691-H02H) (human) (UniProt O15123). In words: condition: about log 2.6 on the axis Conc log(nM) (400 nM maximum final concentration per paragraph 212); Flow cytometry blocking: hAng2-Fc pre-incubated with the antibody, 293-Tie2 cells, Mean-PE-A. For orientation: A flow cytometer gives signals particle by particle.
The target is the same in experiment [2]. In words: condition: about log 2.6 on the axis Conc. log(nM) (400 nM maximum final concentration per paragraph 212); Flow cytometry blocking: hAng2-Fc pre-incubated with the antibody, 293-Tie2 cells, Mean PE-A.
The target of experiment [3] is hAng2-biotin (R&D, Catalog No. BT623B/CF) (human) (UniProt O15123). In words: condition: about log 2.5 on the axis Conc. log(nM) (300 nM maximum per paragraph 208); Blocking ELISA: hTie2 coated, biotinylated hAng2 pre-incubated with the antibody, OD450-OD620. Background: In an ELISA, binding on a coated surface is turned into a signal by an enzyme label.
The target is the same in experiment [4]. Kind of experiment: condition: about log 0.7 on the axis Conc log (ug/ml) (about 5 ug/ml); Blocking ELISA: Tie2-Fc coated, hAng2-biotin pre-incubated with the antibody, OD450-OD620.
Experiment [5] concerns the target biotin-labeled VEGF A165 (ACRO, Catalog No. VE5-H8210) (human) (UniProt P15692). In words: condition: about log 2.2 on the axis Conc log(ug/ml) (150 ug/mL initial concentration per paragraph 172); Blocking ELISA: biotin-VEGF A165 captured, VEGFR-Fc as the blocked receptor, OD450nm.
For experiment [6], the target named is hAng2-biotin (R&D, Catalog No. BT623B/CF) (human) (UniProt O15123). Kind of experiment: blocking ELISA: Tie2-Fc coated, Ang2-Bio (R&D) in solution.
Experiment [7] shares this target. In words: Blocking ELISA: Tie2-Fc coated, hAng2-biotin pre-incubated with the antibody, Avidin HRP, OD450-OD620.
The target is the same in experiment [8]. In words: blocking ELISA: Tie2-Fc coated, Ang2-biotin in solution.
Experiment [9] shares this target. Kind of experiment: blocking ELISA: hTie2 coated, biotinylated hAng2 in solution.
The target in experiment [10] is hAng2-Fc (Beijing Sino Biological, Catalog No. 10691-H02H) (human) (UniProt O15123). In words: flow cytometry blocking assay: hAng2-Fc on 293-Tie2 cells.
Experiment [11] has the same target. In words: flow cytometry blocking assay (legend of FIGS. 10A-10B).
Experiment [12] deals with hAng2-biotin (R&D, Catalog No. BT623B/CF) (human) (UniProt O15123). Kind of experiment: blocking ELISA (legend of FIGS. 9A-9B).

Protein sequences, listed by entry. Tags and fused reporters are not part of them. Lines headed by an entry give the natural chain unless they say otherwise; changes in a name come on top. Chains listed by the source or under a name are the forms on record and can include a tag or linker. Residues count along the entry.
UniProt O15123: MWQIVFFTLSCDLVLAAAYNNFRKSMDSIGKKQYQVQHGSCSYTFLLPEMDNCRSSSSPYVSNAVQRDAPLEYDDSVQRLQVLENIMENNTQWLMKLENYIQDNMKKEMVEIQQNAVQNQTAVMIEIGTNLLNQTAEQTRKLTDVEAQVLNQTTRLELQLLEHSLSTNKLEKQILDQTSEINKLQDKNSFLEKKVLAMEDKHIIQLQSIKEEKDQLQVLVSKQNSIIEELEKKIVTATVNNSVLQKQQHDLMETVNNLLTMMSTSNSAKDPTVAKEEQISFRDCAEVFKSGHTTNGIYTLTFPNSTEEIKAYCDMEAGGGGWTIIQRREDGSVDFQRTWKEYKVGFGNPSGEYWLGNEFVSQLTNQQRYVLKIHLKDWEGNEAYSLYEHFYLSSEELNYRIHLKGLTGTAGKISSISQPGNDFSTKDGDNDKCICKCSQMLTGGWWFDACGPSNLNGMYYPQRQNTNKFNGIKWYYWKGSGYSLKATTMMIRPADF
hAng2-Fc (Beijing Sino Biological, Catalog No. 10691-H02H): residues 19-496 of O15123
hAng2-biotin (R&D, Catalog No. BT623B/CF): residues 68-496 of O15123
biotin-labeled VEGF A165 (ACRO, Catalog No. VE5-H8210) (P15692, form named): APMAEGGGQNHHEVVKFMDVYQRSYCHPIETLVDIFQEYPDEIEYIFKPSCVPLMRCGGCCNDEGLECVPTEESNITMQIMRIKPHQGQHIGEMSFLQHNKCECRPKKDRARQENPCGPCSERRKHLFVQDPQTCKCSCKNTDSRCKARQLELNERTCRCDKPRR

Among the data in US20260274937A1 are binding values, retold here.

No constants are given. Whether binding was seen depends on the method and setting. Some entries that bind do so weakly or less than the wild type.

B1: IgG (antibody, V domains shown)
VH: EVRLLESGGGLVQPGGSLRLSCAASGFTFSNYAMGWVRQAPGKGLEWVSAISGSGGSTYYADSVKGRFTTSRDDSKNALYLQMNSLRAEDTAVYYCARGGPGWYAADVWGQGTTVTVSS
VL: DIQMTQSPSSLSASVGDRVTITCRASQSISSYLNWYQQKPGKAPKLLIYAASSLQSGVPSRFSGSGSGTDFTLTISSLQPEDFATYYCQQADLPAFAFGGGTKVEIKR
For B1, the binding result in [1], in experiment [2], in [3], in experiment [4] and in experiment [5] was “no binding” each time.

B2: LA24C11.10 (Ang2 VHH) (VHH)
VHH: EVQLLESGGGLVQPGGSLRLSCAASGFALDYYAIGWFRQAPGKGLEGVSCISSGEGSTYYADSVKGRFTISRDNSKNTVYLQMNSLRAEDTAVYYCATDSRGDDVACEGLRRNEYDYWGQGTLVTVSS
On to B2, for which the binding result in [6] and in experiment [7] was “binds” in each case.

B3: LA24C11 (Ang2 VHH) (VHH)
VHH: QVQLVESGGGLVQPGGSLRLSCAASGFALDYYAIGWFRQAPGKEREGVSCISSGDGSTYYADSVKGRFTISRDNAKNTVYLQMNSLKPEDTAVYYCATDSRGDDVACEGLRRNEYDYWGQGTQVTVSS
In the case of B3, the binding result in experiment [8] was “binds”.

B4: IEX04-008 (bispecific antibody)
chain: EVQLLESGGGLVQPGGSLRLSCAASGSIFSINAMGWHRQAPGKQRELVATMIGGSSTFYAESVQGRFTISRDNSKNTVYLQMNSLRAEDTAVYYCYADVTGRSGTSIWNKRDDYWGQGTQVTVSSGGGGSGGGGSEVQLLESGGGLVQPGGSLRLSCAASGSIFSINAMGWHRQAPGKQRELVATMIGGSSTFYAESVQGRFTISRDNSKNTVYLQMNSLRAEDTAVYYCYADVTGRSGTSIWNKRDDYWGQGTQVTVSSGGGGSGGGGSEVQLLESGGGLVQPGGSLRLSCAASGFALDYYAIGWFRQAPGKGLEGVSCISSGEGSTYYADSVKGRFTISRDNSKNTVYLQMNSLRAEDTAVYYCATDSRGDDVACEGLRRNEYDYWGQGTLVTVSS
In the case of B4, the binding result in experiment [9], in experiment [10], in experiment [11] and in [12] was “binds” throughout.
